PMC9095502
These are yes or no findings as the source states them, for the method shown. Binding seen in cells or lysates may run through a third protein. Binding calls can cover weak binding; strength is not graded here. Sequences can lack the tags named with a protein.

Protein sequences, listed by entry. Tags and fused reporters are not part of them. Lines headed by an entry give the natural chain unless they say otherwise; changes in a name come on top.
UniProt P61765: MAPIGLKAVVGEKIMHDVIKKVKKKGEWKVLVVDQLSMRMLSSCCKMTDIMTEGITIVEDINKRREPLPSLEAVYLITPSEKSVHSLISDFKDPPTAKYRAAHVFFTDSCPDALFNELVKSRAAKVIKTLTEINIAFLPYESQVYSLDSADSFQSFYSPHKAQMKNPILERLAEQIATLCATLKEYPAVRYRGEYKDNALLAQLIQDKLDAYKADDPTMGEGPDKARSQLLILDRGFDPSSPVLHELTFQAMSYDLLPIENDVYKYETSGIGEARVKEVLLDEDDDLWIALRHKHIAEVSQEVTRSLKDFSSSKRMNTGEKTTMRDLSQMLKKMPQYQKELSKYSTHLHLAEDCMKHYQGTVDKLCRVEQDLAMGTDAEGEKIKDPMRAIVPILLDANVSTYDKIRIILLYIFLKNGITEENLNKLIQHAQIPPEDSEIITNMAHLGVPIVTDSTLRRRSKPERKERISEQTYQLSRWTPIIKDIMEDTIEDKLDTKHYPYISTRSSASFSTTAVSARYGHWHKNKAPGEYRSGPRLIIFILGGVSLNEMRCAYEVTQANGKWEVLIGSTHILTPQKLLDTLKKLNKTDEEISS

Biological target: T1, myc-DGKθ (UniProt P52824)
T1 sequence: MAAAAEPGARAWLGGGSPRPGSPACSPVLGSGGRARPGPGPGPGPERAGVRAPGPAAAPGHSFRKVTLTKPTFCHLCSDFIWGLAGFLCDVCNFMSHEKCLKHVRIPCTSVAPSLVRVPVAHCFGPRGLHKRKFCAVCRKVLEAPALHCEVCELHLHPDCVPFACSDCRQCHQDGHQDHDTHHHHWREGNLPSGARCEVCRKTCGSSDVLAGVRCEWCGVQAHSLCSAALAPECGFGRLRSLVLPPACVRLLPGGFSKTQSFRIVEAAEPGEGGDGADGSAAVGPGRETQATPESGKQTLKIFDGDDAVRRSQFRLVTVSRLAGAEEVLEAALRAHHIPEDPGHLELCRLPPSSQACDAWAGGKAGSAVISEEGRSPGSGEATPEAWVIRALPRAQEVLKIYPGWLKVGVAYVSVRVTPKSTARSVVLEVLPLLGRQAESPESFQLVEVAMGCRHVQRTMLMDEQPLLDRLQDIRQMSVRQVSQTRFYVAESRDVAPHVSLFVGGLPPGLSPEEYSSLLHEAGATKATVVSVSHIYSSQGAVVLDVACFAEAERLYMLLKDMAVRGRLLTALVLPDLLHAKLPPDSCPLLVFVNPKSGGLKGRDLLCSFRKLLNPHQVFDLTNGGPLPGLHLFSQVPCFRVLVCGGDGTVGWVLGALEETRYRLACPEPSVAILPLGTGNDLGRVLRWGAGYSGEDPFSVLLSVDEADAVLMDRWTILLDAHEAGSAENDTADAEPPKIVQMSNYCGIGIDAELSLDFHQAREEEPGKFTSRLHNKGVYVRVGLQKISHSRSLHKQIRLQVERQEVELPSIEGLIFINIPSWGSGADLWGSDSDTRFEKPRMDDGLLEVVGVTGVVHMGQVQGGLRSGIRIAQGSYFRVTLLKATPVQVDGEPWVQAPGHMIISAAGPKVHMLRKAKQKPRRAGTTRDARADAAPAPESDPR
Test: co-IP; HEK293FT transfected with pRK5-myc-DGKθ alone or with each interactor's plasmid; lysis in 1% NP40, 5 mM NaF, 5 mM NaPPi, 1 mM EDTA, 1 mM EGTA in PBS; anti-myc antibody and protein A/G beads; Western blot for the interactor

Munc18-1b (tagged, overexpressed in HEK293FT) (from UniProt P61765)
binding: binds
